The text below walks through data of PubChem BioAssay AID2685 (National Center for Advancing Translational Sciences (NCATS), 2010).

The test in a line: qHTS Assay for Lipid Storage Modulators in Drosophila S3 Cells.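 On cell number change: cells counted by Cell Tracker Red CMTPX staining in the red channel.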 Conditions: BODIPY lipid droplet fluorescence, 18-24 h; for cell number change: measured here: cell count max response, cells fed with added oleic acid. The method, boiled down:
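Drosophila S3 cells got compounds at several concentrations plus oleic acid (400 uM solution). Laser-scanning cytometry with 488 nm excitation read lipid droplets at 500-530 nm and cells at 575-640 nm. Percent activity was relative to 20 uM Triacsin C.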
On the technique in general: qHTS replaces the single test concentration by a dilution series.

Where [1] appears, read: measured here: lipid fluorescence (Fed channel) AC50, cells fed with added oleic acid.
[2] abbreviates: measured here: cell number channel AC50, cells fed with added oleic acid.

The other results are listed elsewhere or left out. The main result of the screen is listed elsewhere. These columns were measured beside it and carry no call. The list favours compounds with an active or inconclusive main result. Words in brackets tell the shape of the fitted curve; partial curves, single points and poor fits give uncertain potencies.

The term AC50 denotes the midpoint of the concentration-response curve, whichever way the signal moves. Read a low AC50 as activity at low concentration. `CCCN(CCC)CCN1C(=O)C2C(C(=O)Nc3ccc(C)cc3)C3C=CC2(O3)C1C(=O)NC1CCCCC1` (centres undefined): the cell number change was 14.4%. Besides, the half-maximal activity concentration (AC50) under setting [1] is 6.51 µM [rising, single point].
As to `CCN(CCN1CCCC1)C(=O)c1cc(COc2ccccc2SC)on1`, the cell number change turned out to be 3.97%. For the same compound, under setting [1], the concentration at half-maximal activity (AC50) is 0.13 µM [rising, full curve, poor fit].
Consider `CCOC(=O)C(CC)(CCC(=O)O)c1csc(N)n1` (centres undefined), for which the cell number change is -40.6%. Also, the AC50 under setting [2] was 3.26 µM [falling, full curve]. Moreover, the half-maximal activity concentration (AC50) under setting [1] was 3.66 µM [falling, full curve].
Turning to `CCc1nc2ccc(C(=O)N3CCN(c4ccccc4)CC3)cc2nc1CC`, the cell number change was found to be 8.25%.
Take `Cc1noc(NS(=O)(=O)c2ccc(NC(=O)CSc3n[nH]c(-c4ccccc4)n3)cc2)c1C`: the cell number change was 2.16%. The half-maximal activity concentration (AC50) under setting [1] is 16.4 µM [rising, single point].
In the case of `O=C(CN1c2ccccc2Sc2ccccc21)NNC(=O)Nc1ccc(Cl)cc1`, the cell number change was -4.51%. The AC50 under setting [1] is 2.91 µM [rising, partial curve].
Take `CCOC(=O)N1CCC(n2c(SCC(=O)N3CCC(C)CC3)nc3ccccc3c2=O)CC1`: the cell number change was -27.5%.
With `CCN(CC(=O)Nc1c(F)cccc1F)C(=O)C1=COCCO1`, the cell number change was -11.7%. For the same compound, under setting [1], the AC50 was 25.9 µM [falling, partial curve].
As for `Cn1c(/N=C/c2ccc3c(c2)OCO3)nc2ccccc21`, the cell number change was -0.0225%. Also, the AC50 under setting [1] is 5.8 µM [falling, single point].
As for `CC1CCCC(NC(=O)COC(=O)Cc2ccc(Br)cc2)C1C` (centres undefined), the cell number change was 2.88%.
`Cc1c(Cl)cccc1NC(=O)COC(=O)Cc1ccsc1`: the cell number change was -10%. Under setting [1], the concentration at half-maximal activity (AC50) was 13 µM [falling, partial curve].
Turning to `Cc1cc(C)c(C#N)c(N2CCN(Cc3ccccc3)CC2)n1`, the cell number change is -2.51%. Besides, the AC50 under setting [1] is 0.731 µM [rising, single point].
Consider `CC1=C(NCCc2ccccc2)CCC1=O`, for which the cell number change amounted to 1.38%. Under setting [1], the AC50 was 6.51 µM [falling, partial curve, poor fit].
With `CCNc1c(NC(=O)C2CCC(C)CC2)c(=O)oc2ccccc12` (centres undefined), the cell number change is 3.17%. The AC50 under setting [1] was 0.58 µM [falling, single point].
As to `Cc1ccc(C)c(-n2c(SCC(N)=O)nnc2-c2ccccn2)c1`, the cell number change stood at 5.97%. Further, the AC50 under setting [1] was 6.51 µM [falling, single point].
For the compound `CCCCOC(=O)Nc1ccc(OC)cc1S(=O)(=O)N1CCOCC1`, the cell number change was -1.84%. Also, the AC50 under setting [1] is 0.461 µM [rising, full curve, poor fit].
Regarding `Cc1ccc(Nc2cc(C)nc3nnnn23)cc1`, the AC50 under setting [2] is 0.092 µM [rising, full curve, poor fit].
Regarding `CCOc1ccc(NC(=O)Nc2ccccc2C(N)=O)cc1`, the cell number change was -4.38%. In addition, the concentration at half-maximal activity (AC50) under setting [2] was 6.51 µM [falling, single point]. Further, the concentration at half-maximal activity (AC50) under setting [1] was 6.51 µM [falling, single point].
Regarding `Cc1c(C(=O)OCC(=O)N2CCCC2=O)oc2ccccc12`, the cell number change is 17.7%.
With `Cc1oc2c(cc(NS(=O)(=O)c3ccc(Cl)cc3)c3ccccc32)c1C(=O)O`, the cell number change was 29.2%. The AC50 under setting [1] is 29.1 µM [rising, partial curve].
Take `Cc1ccc(OCC(=O)N/N=C/C=C/c2ccco2)c(Br)c1`: the cell number change is -31.5%. Also, under setting [2], the AC50 was 32.6 µM [falling, single point]. Under setting [1], the half-maximal activity concentration (AC50) is 11.6 µM [falling, single point].
As to `CN(C)c1ncc(/C=C2/C(=O)NC(=S)N(C3CCCCC3)C2=O)cn1`, the cell number change is -21.7%. Besides, under setting [1], the AC50 was 1.84 µM [falling, single point].
Take `CC(=O)c1cccc(NC(=O)CNC(=O)c2cc3ccccc3o2)c1`: the cell number change was found to be 4.13%. Further, under setting [2], the AC50 was 3.26 µM [rising, single point]. Moreover, under setting [1], the AC50 is 29.1 µM [rising, single point].
On to `CCn1cc(C(=O)NCCCN(C)C)c(=O)c2cc(F)c(N3CCN(C)CC3)cc21`, for which the cell number change was -19.6%. The half-maximal activity concentration (AC50) under setting [1] is 0.146 µM [falling, full curve].
With `CC1(C)C(=O)OC(/C=C/c2cccc([N+](=O)[O-])c2)C(C)(C)C1=O` (centres undefined), the cell number change is -20.2%. The concentration at half-maximal activity (AC50) under setting [2] is 0.58 µM [falling, single point].
Turning to `C=CCn1c(-c2sccc2C)n[nH]c1=S`, the cell number change came to 12.9%. The half-maximal activity concentration (AC50) under setting [1] was 11.6 µM [rising, partial curve].
Consider `COc1ccc(NC(=O)C2CC(=O)N(CCc3ccc(Cl)cc3)C2)cc1` (centres undefined), for which the cell number change stood at 48.7%. Besides, the half-maximal activity concentration (AC50) under setting [2] is 16.4 µM [rising, partial curve].
In the case of `COc1ccc(-n2cnnc2SCC(=O)NC2CCS(=O)(=O)C2)cc1` (centres undefined), the cell number change was -4.45%. For the same compound, the concentration at half-maximal activity (AC50) under setting [1] was 0.00651 µM [falling, full curve, poor fit].
In the case of `COc1ccc(/C=C(\C#N)C(=O)OCCNC(=O)c2ccncc2)cc1`, the concentration at half-maximal activity (AC50) under setting [2] is 0.146 µM [falling, single point].
On to `Cc1ccc(NC(=O)COC(=O)C2CC2C)c(S(=O)(=O)N2CCCCC2)c1` (centres undefined), for which the cell number change is -16%. Besides, the half-maximal activity concentration (AC50) under setting [1] is 16.4 µM [falling, single point].
For `CC1Cc2ccccc2N1S(=O)(=O)c1cccc(C(=O)OCC(=O)NC2CCS(=O)(=O)C2)c1` (centres undefined), the cell number change is -312%. Further, the half-maximal activity concentration (AC50) under setting [2] was 18.4 µM [falling, partial curve]. For the same compound, the concentration at half-maximal activity (AC50) under setting [1] was 3.66 µM [falling, full curve, poor fit].
With `CN(c1ccc(C(=O)NCCSCc2ccc(Cl)cc2)cc1)S(=O)(=O)c1ccccc1`, the cell number change is 58.3%. Moreover, under setting [2], the half-maximal activity concentration (AC50) is 29.1 µM [rising, single point].
As to `COC(=O)c1ccc(NC(=O)N2CCCC(C(=O)c3ccccc3OC)C2)cc1` (centres undefined), the cell number change was -34.7%. Moreover, the half-maximal activity concentration (AC50) under setting [2] is 1.64 µM [falling, full curve, poor fit]. Further, the AC50 under setting [1] was 1.3 µM [falling, full curve].
In the case of `CC(=O)Nc1ccc(NC(=O)C(=O)NCC(c2ccco2)N2CCc3ccccc32)cc1` (centres undefined), the cell number change turned out to be 83.2%. In addition, the concentration at half-maximal activity (AC50) under setting [2] was 29.1 µM [rising, single point].
In the case of `CC(C)(C)N1C(=O)c2ccc(C(=O)Nc3ccc(-c4nc5ccccc5[nH]4)cc3)cc2C1=O`, the cell number change was -6.21%. Moreover, the half-maximal activity concentration (AC50) under setting [1] was 4.61 µM [falling, partial curve].
As for `CCCCc1cc(=O)oc2cc(O)ccc12`, the cell number change is -46%. The concentration at half-maximal activity (AC50) under setting [2] was 9.2 µM [falling, partial curve, poor fit]. Further, the half-maximal activity concentration (AC50) under setting [1] was 29.1 µM [falling, single point].
For the compound `O=C(COC(=O)C1=COCCO1)Nc1ccccc1Oc1ccccc1`, the cell number change is -180%. The AC50 under setting [2] was 29.1 µM [falling, single point].
In the case of `CCCCCCCCCCCCC(NC(C)=O)(C(=O)OCC)C(=O)OCC`, the cell number change came out at 9.52%. Also, the AC50 under setting [1] is 0.651 µM [falling, full curve].
Consider `CCOc1ccc2[nH]c(=O)c(CN(Cc3ccco3)C(CC)c3nnnn3Cc3ccccc3)cc2c1` (centres undefined), for which the cell number change was -23.7%. Also, under setting [1], the AC50 was 0.517 µM [rising, full curve, poor fit].
For the compound `O=C1c2ccncc2C(=O)N1Cc1cccc(Cl)c1`, the cell number change is -62.6%. For the same compound, under setting [2], the AC50 is 25.9 µM [falling, partial curve, poor fit].
Regarding `N#Cc1c(N)c(C#N)c(-c2ccc3c(c2)OCO3)c2c1CCCC2`, the cell number change stood at 12.2%.
Take `CCOC(=O)c1ccc(NC(=O)CSc2nnc(-c3cccs3)n2CC)cc1`: the cell number change is -24.7%. Further, under setting [1], the AC50 was 29.1 µM [rising, single point].
Consider `Cc1cccc(NC(=O)c2oc(=O)c3ccccc3c2-c2ccccc2)c1C`, for which the cell number change worked out at 47.6%. Besides, the AC50 under setting [2] was 1.16 µM [rising, partial curve, poor fit].
Consider `O=[N+]([O-])c1cc(CN2CCCC2)c2cccnc2c1O`, for which the cell number change turned out to be 3.38%. Further, under setting [1], the half-maximal activity concentration (AC50) is 3.66 µM [rising, single point].
Consider `CCOC(=O)Cn1c2c(c(-c3ccccc3OC)cc1=O)CCCC2`, for which the cell number change is 15.8%. Also, under setting [1], the AC50 was 6.51 µM [falling, single point].
As to `CCC(=O)c1ccc(OCC(O)CN(C)C2CCCCC2)cc1` (centres undefined), the cell number change was -133%. Also, the AC50 under setting [2] was 18.4 µM [falling, partial curve]. In addition, the AC50 under setting [1] is 18.4 µM [falling, partial curve].
Regarding `COC(CC(=O)NNC(=S)Nc1ccccc1)OC`, the cell number change is -2.17%. In addition, the AC50 under setting [1] is 0.184 µM [falling, partial curve, poor fit].
`COc1ccc(C(=O)N2CCCC(O)C2)cc1OC1CCN(C(C)C)CC1` (centres undefined): the cell number change came to 6.36%.
As to `CCOC(=O)N1CCN(C(=O)c2cccn3c(=O)c4cc(Br)ccc4nc23)CC1`, the cell number change was found to be 0.86%. The AC50 under setting [2] was 0.116 µM [falling, full curve, poor fit].
`CC(C)c1nc(C#N)c(N2CCOCC2)o1`: the cell number change was -7.15%. In addition, under setting [1], the AC50 was 0.82 µM [falling, full curve, poor fit].
Take `Cc1cc(N/N=C/c2ccccc2)nc(NCc2ccccc2)n1`: the cell number change was -55.3%. In addition, the AC50 under setting [2] was 32.6 µM [falling, partial curve, poor fit]. Under setting [1], the half-maximal activity concentration (AC50) was 29.1 µM [falling, single point].
For the compound `CCOC(=O)C(Cc1ccc(N)cc1)N1C(=O)c2ccccc2C1=O` (centres undefined), the cell number change was -19.4%. In addition, under setting [1], the AC50 was 8.2 µM [falling, partial curve, poor fit].
Take `CCN(CC)S(=O)(=O)c1ccc(C)c(NC(=S)N2CCN(c3ccccn3)CC2)c1`: the cell number change was -13.2%.
Take `Cc1nc(NC(=O)CSc2nc3cccnc3n2Cc2ccccc2)sc1C`: the cell number change is -74.8%. In addition, the AC50 under setting [2] was 29.1 µM [falling, single point]. For the same compound, under setting [1], the AC50 is 29.1 µM [falling, single point].
As for `CC12CN(NC(=O)c3ccccc3F)C3(C#N)CC1CCC23C` (centres undefined), the cell number change was -22.9%. Moreover, under setting [1], the concentration at half-maximal activity (AC50) is 0.517 µM [falling, partial curve, poor fit].
`CCCCCCCNC(=O)COc1ccc2c(c1)C(=O)CC(C)(C)O2`: the cell number change is -23.2%. For the same compound, the concentration at half-maximal activity (AC50) under setting [2] is 0.651 µM [falling, full curve, poor fit]. Moreover, the AC50 under setting [1] was 6.51 µM [falling, partial curve].
As for `CC(C)(C)N1C(=O)[C@H]2[C@@H](c3ccc(Br)cc3)N3C(=O)N(c4cccc(F)c4)C(=O)[C@@]3(C)[C@H]2C1=O`, the cell number change worked out at 12%. Also, the half-maximal activity concentration (AC50) under setting [2] was 0.517 µM [falling, full curve]. Moreover, under setting [1], the AC50 was 0.82 µM [falling, full curve, poor fit].
As for `COc1ccc(Cl)cc1N(CC(=O)N/N=C/c1ccc(OC(C)C)cc1)S(=O)(=O)c1ccc(C)c([N+](=O)[O-])c1`, the cell number change is 3.65%. Moreover, the AC50 under setting [1] is 0.146 µM [rising, full curve, poor fit].
